In the supplement of paper PMC8728848:
The list shows a part of the results.

What was measured:
Assay in all cases: glycan array binding signal (z-score within array); higher = stronger binding
Conditions in all cases: glycan notation: IUPAC condensed, linker removed
[1] = target: Fuc(a1-3)[Gal3S(b1-4)]GlcNAc
Outline: (§1)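 Glycan array data came from 3228 arrays in the Consortium for Functional Glycomics database, and only arrays with an available protein sequence were kept. Glycan names were put into IUPAC-condensed notation, and columns mapping to the same glycan were averaged. The binding signal is a within-array Z-score, averaged across arrays of one protein sequence run at different concentrations or buffers and across linkers. A negative Z-score can be read as non-binding.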

[2] = target: Fuc(a1-3)[Gal3S(b1-4)]GlcNAc6S
Outline: as §1

[3] = target: Fuc(a1-3)[GalNAc(b1-4)]GlcNAc
Outline: as §1

[4] = target: Fuc(a1-3)[GalNAc(b1-4)]GlcNAc6S
Outline: as §1

[5] = target: Fuc(a1-4)GlcNAc
Outline: as §1

[6] = target: Fuc(b1-3)GlcNAc
Outline: as §1

[7] = target: Gal(a1-2)Gal
Outline: as §1

[8] = target: Gal(a1-3)Gal
Outline: as §1

[9] = target: Gal(a1-3)Gal(b1-3)GlcNAc
Outline: as §1

[10] = target: Gal(a1-3)Gal(b1-3)GlcNAc(b1-2)Man
Outline: as §1

[11] = target: Gal(a1-3)Gal(b1-3)GlcNAc(b1-2)Man(a1-3)[Gal(a1-3)Gal(b1-3)GlcNAc(b1-2)Man(a1-6)]Man(b1-4)GlcNAc(b1-4)GlcNAc
Outline: as §1

[12] = target: Gal(a1-3)Gal(b1-3)GlcNAc(b1-3)GalNAc
Outline: as §1

[13] = target: Gal(a1-3)Gal(b1-3)GlcNAc(b1-6)GalNAc
Outline: as §1

[14] = target: Gal(a1-3)Gal(b1-3)[Fuc(a1-4)]GlcNAc(b1-2)Man(a1-3)[Gal(a1-3)Gal(b1-3)[Fuc(a1-4)]GlcNAc(b1-2)Man(a1-6)]Man(b1-4)GlcNAc(b1-4)GlcNAc
Outline: as §1

[15] = target: Gal(a1-3)Gal(b1-4)Glc
Outline: as §1

[16] = target: Gal(a1-3)Gal(b1-4)GlcNAc
Outline: as §1

[17] = target: Gal(a1-3)Gal(b1-4)GlcNAc(b1-2)Man
Outline: as §1

[18] = target: Gal(a1-3)Gal(b1-4)GlcNAc(b1-2)Man(a1-3)[Gal(a1-3)Gal(b1-4)GlcNAc(b1-2)Man(a1-6)]Man(b1-4)GlcNAc(b1-4)GlcNAc
Outline: as §1

[19] = target: Gal(a1-3)Gal(b1-4)GlcNAc(b1-3)GalNAc
Outline: as §1

[20] = target: Gal(a1-3)Gal(b1-4)GlcNAc(b1-6)GalNAc
Outline: as §1

[21] = target: Gal(a1-3)Gal(b1-4)[Fuc(a1-3)]GlcNAc
Outline: as §1

[22] = target: Gal(a1-3)Gal(b1-4)[Fuc(a1-3)]GlcNAc(b1-2)Man(a1-3)[Gal(a1-3)Gal(b1-4)[Fuc(a1-3)]GlcNAc(b1-2)Man(a1-6)]Man(b1-4)GlcNAc(b1-4)GlcNAc
Outline: as §1

[23] = target: Gal(a1-3)GalNAc
Outline: as §1

[24] = target: Gal(a1-3)[Gal(a1-4)]Gal(b1-4)GlcNAc
Outline: as §1

[25] = target: Gal(a1-4)Gal(b1-3)GlcNAc(b1-2)Man(a1-3)[Gal(a1-4)Gal(b1-3)GlcNAc(b1-2)Man(a1-6)]Man(b1-4)GlcNAc(b1-4)GlcNAc
Outline: as §1

[26] = target: Gal(a1-4)Gal(b1-4)Glc
Outline: as §1

[27] = target: Gal(a1-4)Gal(b1-4)GlcNAc
Outline: as §1

[28] = target: Gal(a1-4)Gal(b1-4)GlcNAc(b1-2)Man(a1-3)[Gal(a1-4)Gal(b1-4)GlcNAc(b1-2)Man(a1-6)]Man(b1-4)GlcNAc(b1-4)GlcNAc
Outline: as §1

[29] = target: Gal(a1-4)Gal(b1-4)GlcNAc(b1-3)Gal(b1-4)Glc
Outline: as §1

[30] = target: Gal(a1-4)GlcNAc
Outline: as §1

[31] = target: Gal(a1-6)Glc
Outline: as §1

[32] = target: Gal(b1-2)Gal
Outline: as §1

[33] = target: Gal(b1-3)Gal
Outline: as §1

[34] = target: Gal(b1-3)Gal(b1-4)GlcNAc
Outline: as §1

[35] = target: Gal(b1-3)GalNAc
Outline: as §1

[36] = target: Gal(b1-3)GalNAc(a1-3)[Fuc(a1-2)]Gal(b1-4)Glc
Outline: as §1

[37] = target: Gal(b1-3)GalNAc(a1-3)[Fuc(a1-2)]Gal(b1-4)GlcNAc
Outline: as §1

[38] = target: Gal(b1-3)GalNAc(b1-3)Gal
Outline: as §1

[39] = target: Gal(b1-3)GalNAc(b1-3)Gal(a1-4)Gal(b1-4)Glc
Outline: as §1

[40] = target: Gal(b1-3)GalNAc(b1-4)Gal(b1-4)Glc
Outline: as §1

[41] = target: Gal(b1-3)GalNAc(b1-4)[Neu5Ac(a2-3)]Gal(b1-4)Glc
Outline: as §1

[42] = target: Gal(b1-3)GlcNAc
Outline: as §1

[43] = target: Gal(b1-3)GlcNAc(a1-3)Gal(b1-4)GlcNAc
Outline: as §1

[44] = target: Gal(b1-3)GlcNAc(a1-6)Gal(b1-4)GlcNAc
Outline: as §1

[45] = target: Gal(b1-3)GlcNAc(b1-2)Man
Outline: as §1

B1: DCIR1 (Mus musculus), Q9QZ15 (protein)
chain: MASEITYAEVKFKNESNSLHTYSESPAAPREKPIRDLRKPGSPSLLLTSLMLLLLLLAITFLVAFIIYFQKYSQLLEEKKAAKNIMHNELNCTKSVSPMEDKVWSCCPKDWRLFGSHCYLVPTVSSSASWNKSEENCSRMGAHLVVIQSQEEQDFITGILDTHAAYFIGLWDTGHRQWQWVDQTPYEESITFWHNGEPSSGNEKCATIIYRWKTGWGWNDISCSLKQKSVCQMKKINL
glycan array binding signal (z-score) [1]: 0.427
glycan array binding signal (z-score) [2]: 1.09
glycan array binding signal (z-score) [3]: 0.906
glycan array binding signal (z-score) [4]: -0.626
glycan array binding signal (z-score) [5]: -0.807
glycan array binding signal (z-score) [6]: -0.096
glycan array binding signal (z-score) [7]: -0.211
glycan array binding signal (z-score) [8]: 0.111
glycan array binding signal (z-score) [9]: 7.14
glycan array binding signal (z-score) [10]: 1.29
glycan array binding signal (z-score) [11]: 0.166
glycan array binding signal (z-score) [12]: 0.751
glycan array binding signal (z-score) [13]: -0.283
glycan array binding signal (z-score) [14]: -0.037
glycan array binding signal (z-score) [15]: -0.476
glycan array binding signal (z-score) [16]: 2.08
glycan array binding signal (z-score) [17]: 1.46
glycan array binding signal (z-score) [18]: 0.039
glycan array binding signal (z-score) [19]: -0.346
glycan array binding signal (z-score) [20]: -0.095
glycan array binding signal (z-score) [21]: -0.171
glycan array binding signal (z-score) [22]: 2.31
glycan array binding signal (z-score) [23]: -0.62
glycan array binding signal (z-score) [24]: 3.21
glycan array binding signal (z-score) [25]: 1.54
glycan array binding signal (z-score) [26]: 0.74
glycan array binding signal (z-score) [27]: 0.433
glycan array binding signal (z-score) [28]: -0.048
glycan array binding signal (z-score) [29]: -0.366
glycan array binding signal (z-score) [30]: -0.313
glycan array binding signal (z-score) [31]: -0.103
glycan array binding signal (z-score) [32]: 0.428
glycan array binding signal (z-score) [33]: -0.894
glycan array binding signal (z-score) [34]: -0.241
glycan array binding signal (z-score) [35]: -0.601
glycan array binding signal (z-score) [36]: -0.837
glycan array binding signal (z-score) [37]: -0.591
glycan array binding signal (z-score) [38]: -0.492
glycan array binding signal (z-score) [39]: 0.592
glycan array binding signal (z-score) [40]: 0.215
glycan array binding signal (z-score) [41]: 2.65
glycan array binding signal (z-score) [42]: 0.184
glycan array binding signal (z-score) [43]: -0.863
glycan array binding signal (z-score) [44]: -0.35
glycan array binding signal (z-score) [45]: 0.223
